Results reported in publication PMC7755605.
Results are given in words; binding and its absence hold for the method and conditions named. Binding seen in cells or lysates may run through a third protein. A result given as binding can be weak or reduced; the word gives no strength. Tags and fused reporters may be left off the sequences shown.

Protein sequences, listed by entry. Tags and fused reporters are not part of them. Lines headed by an entry give the natural chain unless they say otherwise; changes in a name come on top.
UniProt P97546: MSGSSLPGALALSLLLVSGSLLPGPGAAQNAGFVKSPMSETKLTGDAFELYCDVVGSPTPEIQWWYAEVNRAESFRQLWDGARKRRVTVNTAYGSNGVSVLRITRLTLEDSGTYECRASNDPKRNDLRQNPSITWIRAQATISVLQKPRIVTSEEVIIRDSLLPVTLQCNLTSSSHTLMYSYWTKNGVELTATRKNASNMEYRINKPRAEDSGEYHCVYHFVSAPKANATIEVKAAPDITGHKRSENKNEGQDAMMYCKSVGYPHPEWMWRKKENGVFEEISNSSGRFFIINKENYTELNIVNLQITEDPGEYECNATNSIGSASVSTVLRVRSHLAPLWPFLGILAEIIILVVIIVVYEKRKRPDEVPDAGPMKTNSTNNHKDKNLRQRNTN

What was measured:
Test in all cases: co-IP; HEK cells co-transfected for 24 h with GFP-tagged neuroplastin constructs and Flag-TRAF6; RIPA lysate; anti-GFP magnetic beads (uMACS), 4 h at 4 C; blot with anti-Flag and anti-GFP
[1] = molecular target: GFP-tagged neuroplastin 65 with the DDEP insert (UniProt P97546)
[2] = molecular target: GFP-tagged neuroplastin 55 with the DDEP insert
[3] = molecular target: GFP-tagged neuroplastin 55 without the DDEP insert

Measured: binding

B1: mouse N-terminal Flag-tagged TRAF6 (protein, UniProt P70196 1-530)
chain: MSLLNCENSCGSSQSSSDCCAAMAASCSAAVKDDSVSGSASTGNLSSSFMEEIQGYDVEFDPPLESKYECPICLMALREAVQTPCGHRFCKACIIKSIRDAGHKCPVDNEILLENQLFPDNFAKREILSLTVKCPNKGCLQKMELRHLEDHQVHCEFALVNCPQCQRPFQKCQVNTHIIEDCPRRQVSCVNCAVSMAYEEKEIHDQSCPLANIICEYCGTILIREQMPNHYDLDCPTAPIPCTFSVFGCHEKMQRNHLARHLQENTQLHMRLLAQAVHNVNLALRPCDAASPSRGCRPEDPNYEETIKQLESRLVRQDHQIRELTAKMETQSMYVGELKRTIRTLEDKVAEMEAQQCNGIYIWKIGNFGMHLKSQEEERPVVIHSPGFYTGRPGYKLCMRLHLQLPTAQRCANYISLFVHTMQGEYDSHLPWPFQGTIRLTILDQSEALIRQNHEEVMDAKPELLAFQRPTIPRNPKGFGYVTFMHLEALRQGTFIKDDTLLVRCEVSTRFDMGGLRKEGFQPRSTDAGV
binds: [1] | [2] | [3]
